In PMC12685520:
Results are given in words; binding and its absence hold for the method and conditions named. In cells and extracts the contact can be indirect. Some binding calls cover weakened binding; strength is not graded here.

Protein sequences, listed by entry. Tags and fused reporters are not part of them. Lines headed by an entry give the natural chain unless they say otherwise; changes in a name come on top. Residues count along the entry.
UniProt Q8IZ07: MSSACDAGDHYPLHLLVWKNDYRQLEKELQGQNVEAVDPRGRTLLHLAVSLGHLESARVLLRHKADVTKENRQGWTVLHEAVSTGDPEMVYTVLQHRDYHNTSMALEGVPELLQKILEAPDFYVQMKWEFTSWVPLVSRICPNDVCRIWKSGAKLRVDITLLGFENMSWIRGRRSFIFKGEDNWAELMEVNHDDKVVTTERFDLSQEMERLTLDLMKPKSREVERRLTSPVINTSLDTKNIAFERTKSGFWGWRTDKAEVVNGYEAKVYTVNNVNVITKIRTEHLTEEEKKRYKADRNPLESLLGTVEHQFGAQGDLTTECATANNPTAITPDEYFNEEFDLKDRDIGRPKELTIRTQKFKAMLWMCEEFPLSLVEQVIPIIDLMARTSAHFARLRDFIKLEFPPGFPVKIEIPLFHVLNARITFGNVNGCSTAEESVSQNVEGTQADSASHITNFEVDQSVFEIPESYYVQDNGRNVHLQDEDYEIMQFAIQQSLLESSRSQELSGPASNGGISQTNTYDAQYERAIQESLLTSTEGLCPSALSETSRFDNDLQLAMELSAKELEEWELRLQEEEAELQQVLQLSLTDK
3xFLAG-ANKRD13A ΔAR (102–590 a.a.): residues 103-590 of Q8IZ07
UniProt Q99623: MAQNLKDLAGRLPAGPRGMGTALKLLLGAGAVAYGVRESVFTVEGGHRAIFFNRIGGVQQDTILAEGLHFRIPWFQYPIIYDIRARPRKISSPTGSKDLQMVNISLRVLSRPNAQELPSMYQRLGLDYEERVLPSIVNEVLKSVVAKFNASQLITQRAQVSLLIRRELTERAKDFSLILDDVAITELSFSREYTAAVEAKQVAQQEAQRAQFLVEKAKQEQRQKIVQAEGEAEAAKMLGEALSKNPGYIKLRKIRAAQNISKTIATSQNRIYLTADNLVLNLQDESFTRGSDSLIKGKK

How the values were obtained:
[1] = target: 3xFLAG-ANKRD13A ΔAR (102–590 a.a.) (human) (UniProt Q8IZ07); test: co-IP; immunoprecipitation (Fig. S2B; legend not shown), basal and OA-treated cells
[2] = target: 3xFLAG-ANKRD13A (wild-type) (human) (UniProt Q8IZ07); test: as above
[3] = target: PHB2-StrepII-FLAG (human) (UniProt Q99623); test: co-IP; anti-FLAG M2 immunoprecipitation from HeLa Parkin cells expressing FLAG-tagged constructs, DMSO or OA 4 h; 25 mM Hepes pH 7.4, 150 mM NaCl, 1 mM EDTA, 10 mM NEM; overnight 4 °C; Western blot; in one panel the immunoprecipitates were incubated with the USP2 catalytic domain for 40 min (interaction with PHB2 markedly reduced)
[4] = target: PHB2-StrepII-FLAG (human) (UniProt Q99623); test: condition: only with epoxomicin (200 nM) added to OA; co-IP; as a4, cells treated with OA + epoxomicin (200 nM) for 4 h
[5] = target: prohibitin 2 (PHB2), endogenous (human (endogenous in HeLa)) (UniProt Q99623); test: co-IP; endogenous proteins in HeLa Parkin cells, DMSO or OA 4 h; cells incubated with 2 mM DSP at 4 °C for 2 h before lysis; immunoprecipitation with anti-PHB2 or anti-ANKRD13A antibodies
[6] = target: PHB2-StrepII-FLAG (human) (UniProt Q99623); test: pull-down; Strep-Tactin resin followed by anti-FLAG pull-down of PHB2-StrepII-FLAG from HeLa Parkin cells (DMSO or OA 4 h), Western blot

binding [1] | binding [2] | binding [3] | binding [4] | binding [5] | binding [6] | Substance
binds | binds |  |  |  |  | Valosin-containing protein (from UniProt P55072 1-806) (enzyme)
 |  | binds | no binding | binds | binds | ankyrin repeat domain-containing protein 13 A (ANKRD13A), endogenous (from UniProt Q8IZ07 1-590)
